Measurements reported in article PMC5606929.
Results are given in words; binding and its absence hold for the method and conditions named. For part of these data: Binding seen in cells or lysates may run through a third protein. Some entries that bind do so weakly or less than the wild type. Sequences can lack the tags named with a protein.

T1: human Aquaporin-2 (AQP2) expressed from pCB6-dBamHI-AQP2 in HEK293 cells (human) (UniProt P41181)
T1 sequence: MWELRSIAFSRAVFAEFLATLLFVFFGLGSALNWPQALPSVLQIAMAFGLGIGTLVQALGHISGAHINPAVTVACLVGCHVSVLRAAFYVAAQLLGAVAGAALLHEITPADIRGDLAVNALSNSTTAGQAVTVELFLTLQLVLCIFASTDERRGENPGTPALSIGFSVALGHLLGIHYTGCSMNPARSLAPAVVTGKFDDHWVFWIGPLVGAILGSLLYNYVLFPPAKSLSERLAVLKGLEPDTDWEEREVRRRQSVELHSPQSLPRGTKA

T2: full-length human Aquaporin-2 (AQP2), C-terminal Cub-tagged MYTH bait (pTMBV-hAQP2-Cub) (human) (UniProt P41181)
T2 sequence: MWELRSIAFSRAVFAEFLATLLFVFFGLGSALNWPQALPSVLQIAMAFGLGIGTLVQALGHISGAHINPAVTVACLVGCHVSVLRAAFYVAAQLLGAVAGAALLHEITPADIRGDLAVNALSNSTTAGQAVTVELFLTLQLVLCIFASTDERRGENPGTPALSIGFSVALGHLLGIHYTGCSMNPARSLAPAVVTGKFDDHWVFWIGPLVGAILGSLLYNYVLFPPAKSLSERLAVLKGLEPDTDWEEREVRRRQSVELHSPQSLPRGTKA


What was measured:
[1] = molecular target: T1, human Aquaporin-2 (AQP2) expressed from pCB6-dBamHI-AQP2 in HEK293 cells (human); test: co-IP; HEK293 transiently co-expressing AQP2 and myc-NDFIP1 or myc-NDFIP2; 10 nM TPA 15 min before harvest; co-IP lysis buffer (100 mM NaCl, 25 mM Tris-HCl, 0.3% NP40, pH 7.5); IP with rabbit anti-AQP2 on Protein A/G-Agarose, overnight 4 C; immunoblot anti-myc
[2] = molecular target: T2, full-length human Aquaporin-2 (AQP2), C-terminal Cub-tagged MYTH bait (pTMBV-hAQP2-Cub) (human); test: two-hybrid; Membrane Yeast Two-Hybrid (MYTH), S. cerevisiae NMY51 (HIS3/ADE2/LacZ); Cub-tagged bait, NubG-tagged prey; colony growth on interaction selective media (SD-WLAH) containing X-Gal; confirmed by back transformation

| binding [1] | binding [2] | Binder |
| --- | --- | --- |
| binds |  | myc-tagged wildtype mouse NDFIP2 (protein, UniProt Q91ZP6 1-311) RRSASDAELSAGAEGATGSEAAPPGDLGGRTRGGGRGSAAAAATTSTREAEGAERRGDTPARKPDPEAGRMDHHQLGTGRYQVLHNEEDNSESSAVEQPSTSSLAAPTVEAAASAPALDPDSPPPYSSITVEAPTTSDTDVYSEFYPVPPPYSVATSLPTYDEAEKAKAAALAAAAADAPQRNQEEDCTPRDDFSDVEQLRVGNDGIFMLAFFMAFIFNWLGFCLSFCITNTIAGRYGAICGFGLSLIKWILIVRFSDYFTGYFNGQYWLWWIFLVLGLLLFFRGFVNYLKVRNMSESMAAAHRTRYFFLL |
| binds |  | myc-tagged wildtype mouse NDFIP1 (protein, UniProt Q8R0W6 1-221) MALALAALAAVEPACGSGYQQLQNEEEPGEPEQTAGDAPPPYSSITAESAAYFDYKDESGFPKPPSYNVATTLPSYDEAERTKTEATIPLVPGRDEDFVGRDDFDDTDQLRIGNDGIFMLTFFMAFLFNWIGFFLSFCLTTSAAGRYGAISGFGLSLIKWILIVRFSTYFPGYFDGQYWLWWVFLVLGFLLFLRGFINYAKVRKMPETFSNLPRTRVLFIY |
|  | binds | NEDD4 family interacting protein 2 (NDFIP2) clone from the MYTH screening, amino acids 203-336, NubG-tagged (domain or fragment, UniProt Q9NV92 203-336) ETSQRIQEEECPPRDDFSDADQLRVGNDGIFMLAFFMAFIFNWLGFCLSFCITNTIAGRYGAICGFGLSLIKWILIVRFSDYFTGYFNGQYWLWWIFLVLGLLLFFRGFVNYLKVRNMSESMAAAHRTRYFFLL |
